Assay [1] addresses cynomolgus CD3 protein (cynomolgus). The experiment in a line: ELISA, plate-coated CD3. On the technique in general: ELISA stands for enzyme-linked immunosorbent assay.
In assay [2] the target is mouse CD3 protein (mouse). The experiment in a line: ELISA, plate-coated CD3.

Where a chain is given by its changes, count along the chain named. No constants are given. Whether binding was seen depends on the method and setting. For part of these data: Binding calls can cover weak binding; strength is not graded here.

B1: 153A6B1 chimeric mAb (antibody, V domains shown)
VH: QVQLKESGPGLVQPSQTLSLTCTVSGFSLTSYNIHWVRQPPGKGLEWMGRIRYNGDTSYNSALKSRLSISRDTSKNQVFLKMSSLQTDDTGTYYCTRGPYGGSREPLFDYWGQGVMVTVSS
VL: DIKMTQSPSFLSAAVGDRVTINCKTSQNINKYLNWFQQKLGAAPKLLIYTTNNLQTGIPSRFSGSGSGTDFTLTISSLQPEDVATYFCLQHGSGYTFGAGTKLELK
For the molecule B1, the binding result was “binds” in assay [1] and “no binding (tested: 15 µg/ml top concentration)” in assay [2].

B2: 192A7B9 chimeric mAb (antibody, V domains shown)
VH: B1 VH with T21N, I34V, I51M, S83N, Y100R, S103Y, R104Y, E105S, P106A
VL: DIQMTQSPSFLSASVGDRVTINCKASQNINRYLNWYQQKLGDAPKVLISIANSLQTGIPSRFSGSGSGTDFTLTISSLQPEDVATYFCLQHNSWYTFGAGTKLELK
Regarding B2, the binding result in assay [1] is “binds”; in assay [2], “no binding (tested: 15 µg/ml top concentration)”.

B3: 155A9B1 chimeric mAb (antibody, V domains shown)
VH: B1 VH with I34V, I51V, V78A, S83N, T87I, R104S
VL: B1 VL with A14S, T25A, A42E, K45R, G92N
With B3, the binding entry in assay [1] is “binds”; in assay [2], “no binding (tested: 15 µg/ml top concentration)”.

The values above are taken from patent publication US20240417469A1.
